This note sets out measurements from patent US20160319367A1, “MEANS AND METHODS FOR TYPING A BREAST CANCER PATIENT AND ASSIGNING THERAPY BASED ON THE TYPING” (STICHTING HET NEDERLANDS KANKER INSTITUUT-ANTONI VAN …, priority 2013, published 2016).

For this test, the system named is ZR-75-1 cells. Put plainly: Colony formation / proliferation assay in ZR-75-1 cells. It is filed as cell-based, human. The note with it: 1 μM 4OH-tamoxifen or 10^-7 M fulvestrant. As for the experimental part: The human breast cancer cell lines ZR-75-1 (ATCC CRL-1500), MDA-MB-231 (ATCC HTB-26) and T47D (ATCC HTB133) were cultured in DMEM supplemented with 10% FCS, 2 mM glutamine, 100 μg/ml penicillin, 100 μg/ml streptomycin, and 1 nM estradiol at 37° C. in 5% CO2. […] Phoenix cells (ATCC CRL-3214) were cultured at 37° C. in 5% CO2 in DMEM with 10% FCS, 2 mM glutamine, 100 μg/ml penicillin, and 100 μg/ml streptomycin.
Cells were infected with retroviral supernatant and selected with puromycin (2.0 μg/ml). […] When colonies appeared, cells were fixed in MeOH/HAc (3:1) and subsequently stained with 50% MeOH/10% HAc/0.1% Coomassie.

For the molecule `CC/C(=C(\c1ccccc1)c1ccc(OCCN(C)C)cc1)c1ccccc1.O=C(O)CC(O)(CC(=O)O)C(=O)O` [tamoxifen, (Z)2-[4-(1,2-diphenyl-1-butenyl)phenoxy]-N, N-dimethylethanamine 2-hydroxy-1,2,3-propanetricarboxylate (1:1)], the cell proliferation result was “proliferation arrest”.
